Experimental data as given in PubChem BioAssay AID445 (National Center for Advancing Translational Sciences (NCATS), 2006).
This is one part of the list. The main result of the screen is listed elsewhere. These columns were measured beside it and carry no call. Compounds called inactive in the main read-out are mostly missing here. Potencies come from curve fits of mixed quality, noted in brackets.

Experiment: IkB Signaling
Conditions: ABC-DLBCL IkBa-CBG/CBR dual luciferase ratio (green luciferase fused to IkBa over red control in OCI-Ly3 lymphoma cells), 4 h; measured here: control luc red channel unless noted
Outline: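 In this assay, an IκBα–CBG68 fusion accumulates when IKK-driven degradation is blocked; native CBR normalizes for cell number. OCI-Ly3 cells were treated 4 h with compound and doxycycline, then green and red light read after Chroma-Glo addition.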

| Compound | AC50 |
| --- | --- |
| CCOC(=O)Cn1c(=O)n(-c2ccccc2OC)c2nc(-c3ccccc3)nc(C(N)=O)c21 | 12.6 µM [falling, partial curve] |
| CCc1ccc(-n2c(SCc3nc(-c4cc(OC)ccc4OC)no3)nnc2-c2ccccc2)cc1 | 12.6 µM [falling, partial curve] |
| Cc1cc(Br)cc(C)c1NC(=O)c1cnc2ccccn2c1=O | 2 µM [rising, partial curve] |
| CCn1c(N2CCN(S(=O)(=O)c3ccccc3C(F)(F)F)CC2)nc2ccccc21 | 31.6 µM [falling, single point] |
| COc1cccc(NS(=O)(=O)c2ccc3[nH]c4c(c3c2)CCCCCC4)c1 | 39.8 µM [falling, single point] |
| COc1ccc(-c2onc(C)c2C)cc1S(=O)(=O)N1CCc2ccccc21 | 39.8 µM [falling, single point] |
| CCOC(=O)c1ccc(NC(=O)CC2Nc3cccc4cccc(c34)NC2=O)cc1 (stereo not given) | 25.1 µM [falling, single point] |
| Cc1noc(C)c1S(=O)(=O)Nc1ccc(C(=O)Nc2ccc(C(C)C)cc2)cc1 | 25.1 µM [falling, single point] |
| COc1c(C)cccc1C(=O)Nc1ccc(Cl)c(-c2nc3cc(C)ccc3o2)c1 | 1.58 µM [rising, partial curve] |
| COc1ccc(-c2nc3sc(CCNC(=O)Cc4ccc(Cl)cc4)c(C)n3n2)cc1 | 20 µM [falling, single point] |
| CCOc1ccc(C2C(=O)N(C3CCCCCC3)CC(=O)N2Cc2ccc(F)cc2)cc1OC (stereo not given) | 2 µM [rising, partial curve] |
| C/C=C/Cn1c(SCc2ccc(Cl)cc2)nc2c1c(=O)[nH]c(=O)n2C | 25.1 µM [falling, partial curve] |
| COc1ccccc1CNc1nc2nc3c(c(=O)n2[nH]1)CCC3 | 7.94 µM [falling, partial curve] |
| CC(C)c1ccc(NC(=O)c2ccc3oc(=O)c(S(=O)(=O)c4ccc(F)cc4)cc3c2)cc1 | 25.1 µM [falling, partial curve, poor fit] |
| CC(C)c1ccc(NC(=O)CSc2ncnc3c2sc2ccccc23)cc1 | 12.6 µM [falling, partial curve] |
| CCN1CCN(c2ncc(C(=O)Nc3cc(Cl)ccc3OC)c3ccccc23)CC1 | 10 µM [falling, partial curve] |
| O=C(Nc1ccc(-c2nc3ccccc3o2)c(O)c1)c1cc(Cl)ccc1Cl | 39.8 µM [falling, single point] |
| CCCCc1ccc(Nc2cc(C)nc(-n3nc(C)cc3C)n2)cc1 | 20 µM [falling, partial curve] |
| O=C(NCC(c1cccnc1)N1CCc2ccccc2C1)C(=O)Nc1ccccc1F (stereo not given) | 5.01 µM [falling, partial curve] |
| O=C(CSc1nnc(CNC(=O)c2ccccc2F)o1)c1ccc(Cl)cc1 | 10 µM [falling, partial curve] |

Quoted at random: 2 records from the list, in no set order.

| Compound | AC50 |
| --- | --- |
| CC(C)c1ccc(NC(=O)c2ccc3oc(=O)c(S(=O)(=O)c4ccc(F)cc4)cc3c2)cc1 | 25.1 µM [falling, partial curve, poor fit] |
| COc1ccccc1CNc1nc2nc3c(c(=O)n2[nH]1)CCC3 | 7.94 µM [falling, partial curve] |

Later entries:

| Compound | AC50 |
| --- | --- |
| CCN1CCc2c(sc(NC(=O)c3ccc(S(=O)(=O)N(C)C4CCCCC4)cc3)c2C(N)=O)C1 | 12.6 µM [falling, partial curve] |
| CC1Cc2cc(S(=O)(=O)CCC(=O)Nc3ccc(F)cc3)ccc2N1C(=O)C1CC1 (stereo not given) | 25.1 µM [falling, single point] |
| Cc1ccc(OCc2ccc(C(=O)N3CCOCC3)cc2)cc1C | 25.1 µM [falling, partial curve] |
| COc1ccc(NC(=O)COc2nsnc2N2CCCCC2)cc1 | 15.8 µM [falling, partial curve] |
| COc1ccc(-c2noc(-c3cccc(Cl)c3)n2)cc1OC | 0.398 µM [rising, full curve, poor fit] |
| CN(C(=O)c1c[nH]c2ccc(S(=O)(=O)Nc3cccc(C(F)(F)F)c3)cc2c1=O)C1CCCCC1 | 15.8 µM [falling, partial curve] |
| COc1cccc2sc(NC(=O)c3ccc(S(=O)(=O)N4CCOCC4)cc3)nc12 | 15.8 µM [falling, partial curve] |
| CN(C)S(=O)(=O)c1ccc(C(=O)NCCSc2c(-c3ccc(Br)cc3)[nH]c3ccccc23)cc1 | 7.94 µM [falling, full curve] |
| O=C(CCN1CCN(CCC(=O)c2ccccc2)CC1)c1ccccc1 | 25.1 µM [falling, partial curve] |
| O=C(NCCc1ccc(Cl)cc1)c1nnc(Cc2ccc(F)cc2)o1 | 0.398 µM [rising, single point] |
| Cc1ccc(NC(=O)C2CCCN(c3ncnc4onc(C)c34)C2)c(Cl)c1 (stereo not given) | 20 µM [falling, partial curve] |
| Cc1nn(-c2ccccc2)c2c1C1(C(=O)Nc3ccccc31)N1C(=N2)Sc2ccccc21 (stereo not given) | 39.8 µM [falling, partial curve] |
| O=C(Nc1ccc(Cl)cc1C(=O)Nc1ccncc1)c1ccco1 | 15.8 µM [falling, partial curve] |
| CCc1sc(Nc2cccc(Cl)c2)nc1-c1cc2cccc(OC)c2oc1=O | 10 µM [falling, partial curve] |
| COc1ccc(NC(=O)CN2C(=O)C(C)(C)c3cc(S(=O)(=O)N4CCCCC4)ccc32)cc1Cl | 1 µM [rising, single point] |
| CC(=O)C1=C(C)NC(SCSc2ccccc2)=C(C#N)C1c1cccnc1 (stereo not given) | 31.6 µM [falling, single point] |
| COc1ccc2oc(=O)c(-c3nnc(NCc4ccco4)s3)cc2c1 | 6.31 µM [rising, full curve] [measured here: IkB-luc green channel] |
| COC(=O)C1=C(C)NC(=O)NC1c1cn(-c2ccccc2)nc1-c1ccc(OC)c(Br)c1 (stereo not given) | 31.6 µM [falling, partial curve] |
| Cn1c(-c2ccco2)nc2cc3ccccc3cc21 | 15.8 µM [falling, partial curve] |
| COc1cccc(-n2c(SCC(=O)c3ccccc3)nc3c([nH]c4ccccc43)c2=O)c1 | 2 µM [rising, partial curve] |
